From publication PMC4742909
These are yes or no findings as the source states them, for the method shown. In cells and extracts the contact can be indirect. Some results given as binding are weak or reduced against the parent protein; the word gives no strength.

The chains behind the UniProt entries cited, without tags or fusion partners. Residues count along the entry.
UniProt Q6PHU5, residues 74-825: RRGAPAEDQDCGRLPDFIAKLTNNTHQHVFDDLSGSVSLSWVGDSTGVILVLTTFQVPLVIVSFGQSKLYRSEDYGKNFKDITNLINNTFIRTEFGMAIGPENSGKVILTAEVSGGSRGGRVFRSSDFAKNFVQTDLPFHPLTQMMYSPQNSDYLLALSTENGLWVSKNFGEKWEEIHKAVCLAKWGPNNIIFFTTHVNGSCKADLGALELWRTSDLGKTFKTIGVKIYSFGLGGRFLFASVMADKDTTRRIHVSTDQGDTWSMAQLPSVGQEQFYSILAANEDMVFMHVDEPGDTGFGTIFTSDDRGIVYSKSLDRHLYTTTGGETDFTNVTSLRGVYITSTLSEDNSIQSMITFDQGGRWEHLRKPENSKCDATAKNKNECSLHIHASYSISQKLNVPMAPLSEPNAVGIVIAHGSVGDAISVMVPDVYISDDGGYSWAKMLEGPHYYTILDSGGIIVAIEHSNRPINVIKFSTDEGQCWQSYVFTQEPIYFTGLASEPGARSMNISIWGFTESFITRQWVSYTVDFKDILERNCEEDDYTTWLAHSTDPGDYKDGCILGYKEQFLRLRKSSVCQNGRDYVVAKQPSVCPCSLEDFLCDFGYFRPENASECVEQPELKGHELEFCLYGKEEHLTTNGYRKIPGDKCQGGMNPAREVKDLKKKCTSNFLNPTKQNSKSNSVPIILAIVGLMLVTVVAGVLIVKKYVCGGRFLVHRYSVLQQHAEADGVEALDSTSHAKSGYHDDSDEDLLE
UniProt O88307, residues 82-2215: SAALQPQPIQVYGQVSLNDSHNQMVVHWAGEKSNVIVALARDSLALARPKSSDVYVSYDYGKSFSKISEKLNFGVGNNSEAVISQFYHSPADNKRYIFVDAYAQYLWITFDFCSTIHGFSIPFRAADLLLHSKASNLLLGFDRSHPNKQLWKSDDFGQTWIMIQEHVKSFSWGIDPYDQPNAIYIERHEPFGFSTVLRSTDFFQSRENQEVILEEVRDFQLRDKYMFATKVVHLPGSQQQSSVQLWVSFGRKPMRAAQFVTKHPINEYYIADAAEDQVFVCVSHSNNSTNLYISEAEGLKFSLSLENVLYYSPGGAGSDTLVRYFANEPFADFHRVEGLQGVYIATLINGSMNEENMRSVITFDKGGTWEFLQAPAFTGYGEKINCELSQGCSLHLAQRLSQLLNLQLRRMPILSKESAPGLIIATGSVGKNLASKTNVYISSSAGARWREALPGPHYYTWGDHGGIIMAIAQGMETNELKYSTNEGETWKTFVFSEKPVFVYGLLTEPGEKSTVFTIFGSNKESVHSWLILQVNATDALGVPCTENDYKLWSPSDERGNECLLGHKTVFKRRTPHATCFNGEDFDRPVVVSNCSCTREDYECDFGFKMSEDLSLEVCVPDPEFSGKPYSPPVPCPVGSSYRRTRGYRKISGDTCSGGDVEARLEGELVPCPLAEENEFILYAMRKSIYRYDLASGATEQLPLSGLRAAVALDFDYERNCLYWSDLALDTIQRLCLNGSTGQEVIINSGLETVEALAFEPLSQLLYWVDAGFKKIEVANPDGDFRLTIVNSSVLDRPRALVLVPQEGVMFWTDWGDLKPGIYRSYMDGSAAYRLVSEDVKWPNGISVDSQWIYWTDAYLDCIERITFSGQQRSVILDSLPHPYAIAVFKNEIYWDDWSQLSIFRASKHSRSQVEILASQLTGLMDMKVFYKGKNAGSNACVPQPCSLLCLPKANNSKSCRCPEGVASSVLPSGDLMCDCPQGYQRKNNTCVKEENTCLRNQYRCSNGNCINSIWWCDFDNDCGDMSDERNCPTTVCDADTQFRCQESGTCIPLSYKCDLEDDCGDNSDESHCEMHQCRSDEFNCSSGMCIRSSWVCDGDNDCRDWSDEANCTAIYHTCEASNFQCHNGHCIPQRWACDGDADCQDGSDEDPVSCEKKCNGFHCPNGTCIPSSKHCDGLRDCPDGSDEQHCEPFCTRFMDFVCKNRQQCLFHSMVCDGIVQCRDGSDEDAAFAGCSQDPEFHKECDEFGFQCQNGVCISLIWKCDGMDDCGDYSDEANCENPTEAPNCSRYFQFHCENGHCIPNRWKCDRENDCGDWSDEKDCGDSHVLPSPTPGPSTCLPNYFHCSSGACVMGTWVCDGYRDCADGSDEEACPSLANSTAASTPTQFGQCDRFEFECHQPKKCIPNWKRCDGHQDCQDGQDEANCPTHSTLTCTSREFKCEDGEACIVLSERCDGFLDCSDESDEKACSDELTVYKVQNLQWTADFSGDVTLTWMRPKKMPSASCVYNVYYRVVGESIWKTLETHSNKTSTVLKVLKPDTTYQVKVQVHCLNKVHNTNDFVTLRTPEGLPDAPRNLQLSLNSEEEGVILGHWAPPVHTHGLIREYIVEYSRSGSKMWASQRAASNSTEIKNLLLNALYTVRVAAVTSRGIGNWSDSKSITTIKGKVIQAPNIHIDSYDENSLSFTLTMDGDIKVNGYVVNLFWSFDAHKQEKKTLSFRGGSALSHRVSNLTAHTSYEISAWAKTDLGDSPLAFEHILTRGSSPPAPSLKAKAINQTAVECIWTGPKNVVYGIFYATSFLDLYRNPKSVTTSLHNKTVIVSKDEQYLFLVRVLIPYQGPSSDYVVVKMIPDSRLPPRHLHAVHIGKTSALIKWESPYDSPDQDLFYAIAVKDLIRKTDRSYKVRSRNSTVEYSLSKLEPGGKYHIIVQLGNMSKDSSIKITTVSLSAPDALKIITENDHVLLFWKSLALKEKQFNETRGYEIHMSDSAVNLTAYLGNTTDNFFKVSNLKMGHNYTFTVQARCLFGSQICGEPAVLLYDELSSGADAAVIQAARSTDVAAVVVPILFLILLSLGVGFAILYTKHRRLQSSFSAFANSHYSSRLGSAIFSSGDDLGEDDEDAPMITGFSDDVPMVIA
UniProt P15209, residues 32-821: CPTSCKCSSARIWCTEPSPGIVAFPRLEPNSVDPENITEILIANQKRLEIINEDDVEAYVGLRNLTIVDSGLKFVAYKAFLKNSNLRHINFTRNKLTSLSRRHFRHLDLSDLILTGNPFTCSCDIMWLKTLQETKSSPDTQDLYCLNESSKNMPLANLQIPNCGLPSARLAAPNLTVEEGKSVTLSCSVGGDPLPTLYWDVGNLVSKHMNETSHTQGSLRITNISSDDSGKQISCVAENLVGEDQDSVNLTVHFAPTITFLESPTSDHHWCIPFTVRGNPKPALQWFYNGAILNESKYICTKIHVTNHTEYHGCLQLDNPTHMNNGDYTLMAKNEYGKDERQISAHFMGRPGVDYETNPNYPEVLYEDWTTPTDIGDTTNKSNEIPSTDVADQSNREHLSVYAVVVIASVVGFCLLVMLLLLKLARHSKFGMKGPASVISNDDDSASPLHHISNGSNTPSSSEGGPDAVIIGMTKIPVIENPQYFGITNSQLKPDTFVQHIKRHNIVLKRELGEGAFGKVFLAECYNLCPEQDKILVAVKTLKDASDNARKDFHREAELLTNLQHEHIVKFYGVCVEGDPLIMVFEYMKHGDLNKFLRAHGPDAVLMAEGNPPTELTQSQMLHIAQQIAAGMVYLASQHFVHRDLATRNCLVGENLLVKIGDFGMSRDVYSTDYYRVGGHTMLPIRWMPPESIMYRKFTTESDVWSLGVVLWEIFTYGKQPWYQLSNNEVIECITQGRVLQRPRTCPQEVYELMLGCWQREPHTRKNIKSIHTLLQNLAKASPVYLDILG
UniProt Q6VNS1, residues 32-825: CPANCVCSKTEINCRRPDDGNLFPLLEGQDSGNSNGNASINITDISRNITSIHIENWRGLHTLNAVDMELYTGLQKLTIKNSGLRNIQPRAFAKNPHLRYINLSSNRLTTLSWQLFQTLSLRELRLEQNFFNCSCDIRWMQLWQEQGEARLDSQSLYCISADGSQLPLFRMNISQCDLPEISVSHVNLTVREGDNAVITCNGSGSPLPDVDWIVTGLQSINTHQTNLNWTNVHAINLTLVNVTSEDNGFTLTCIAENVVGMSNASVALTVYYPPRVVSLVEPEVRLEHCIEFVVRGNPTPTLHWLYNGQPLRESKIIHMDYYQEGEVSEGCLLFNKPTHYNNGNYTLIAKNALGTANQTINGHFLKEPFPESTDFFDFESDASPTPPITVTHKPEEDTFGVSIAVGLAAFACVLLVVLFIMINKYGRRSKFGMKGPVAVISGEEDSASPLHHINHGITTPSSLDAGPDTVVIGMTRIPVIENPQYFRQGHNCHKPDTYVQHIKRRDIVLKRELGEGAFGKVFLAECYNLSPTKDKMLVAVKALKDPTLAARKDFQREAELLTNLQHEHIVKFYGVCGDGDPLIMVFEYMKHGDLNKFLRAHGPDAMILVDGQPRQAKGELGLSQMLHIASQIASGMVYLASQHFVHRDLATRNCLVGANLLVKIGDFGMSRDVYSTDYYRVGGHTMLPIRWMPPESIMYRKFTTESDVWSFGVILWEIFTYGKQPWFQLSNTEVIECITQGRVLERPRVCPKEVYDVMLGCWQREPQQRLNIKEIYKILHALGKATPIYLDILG

Columns and labels:
[1] = target: T1, ARHGAP33 (mouse (endogenous in hippocampus)) (UniProt Q80YF9); assay: co-IP; anti-ARHGAP33 immunoprecipitates from hippocampal lysates of WT and ARHGAP33 KO mice; TNE buffer, antibody on ice 1 h, protein G-sepharose, five washes; immunoblot
T1 sequence: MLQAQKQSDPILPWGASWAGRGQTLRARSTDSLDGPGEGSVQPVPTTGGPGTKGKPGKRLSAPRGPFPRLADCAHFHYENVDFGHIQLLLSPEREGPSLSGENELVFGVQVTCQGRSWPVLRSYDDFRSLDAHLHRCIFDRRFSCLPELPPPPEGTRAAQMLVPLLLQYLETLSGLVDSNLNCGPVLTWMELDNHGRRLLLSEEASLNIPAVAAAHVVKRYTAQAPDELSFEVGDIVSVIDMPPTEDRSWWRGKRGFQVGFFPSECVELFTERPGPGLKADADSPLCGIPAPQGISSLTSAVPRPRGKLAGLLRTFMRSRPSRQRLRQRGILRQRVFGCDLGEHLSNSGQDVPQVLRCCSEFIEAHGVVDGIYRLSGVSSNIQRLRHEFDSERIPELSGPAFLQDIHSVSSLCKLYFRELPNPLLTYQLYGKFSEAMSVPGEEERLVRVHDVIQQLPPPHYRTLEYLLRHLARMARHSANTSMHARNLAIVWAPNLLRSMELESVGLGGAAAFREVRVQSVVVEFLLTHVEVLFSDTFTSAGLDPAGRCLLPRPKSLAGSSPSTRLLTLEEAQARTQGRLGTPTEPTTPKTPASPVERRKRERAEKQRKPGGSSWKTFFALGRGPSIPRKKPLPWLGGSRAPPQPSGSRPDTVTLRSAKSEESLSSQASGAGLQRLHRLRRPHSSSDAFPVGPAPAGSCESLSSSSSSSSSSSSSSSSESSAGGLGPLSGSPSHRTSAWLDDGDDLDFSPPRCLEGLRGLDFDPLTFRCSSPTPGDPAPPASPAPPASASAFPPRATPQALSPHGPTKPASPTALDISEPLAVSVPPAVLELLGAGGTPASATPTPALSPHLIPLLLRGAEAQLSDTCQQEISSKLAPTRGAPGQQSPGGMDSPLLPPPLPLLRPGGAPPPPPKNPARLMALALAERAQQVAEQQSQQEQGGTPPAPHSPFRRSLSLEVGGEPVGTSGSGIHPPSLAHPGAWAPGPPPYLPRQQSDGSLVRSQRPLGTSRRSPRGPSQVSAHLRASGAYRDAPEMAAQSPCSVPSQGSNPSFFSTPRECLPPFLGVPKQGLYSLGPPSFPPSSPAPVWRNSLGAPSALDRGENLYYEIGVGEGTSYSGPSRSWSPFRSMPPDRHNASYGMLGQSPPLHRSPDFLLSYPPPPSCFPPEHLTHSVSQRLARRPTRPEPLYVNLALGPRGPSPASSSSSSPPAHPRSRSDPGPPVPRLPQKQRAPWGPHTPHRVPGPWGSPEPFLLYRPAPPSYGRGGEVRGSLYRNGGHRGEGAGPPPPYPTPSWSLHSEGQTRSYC

[2] = target: sortilin (SORT1) (mouse (endogenous in hippocampus)) (UniProt Q6PHU5); assay: co-IP; anti-SORT1 immunoprecipitates from hippocampal lysates of WT and ARHGAP33 KO mice; TNE buffer, protein G-sepharose; immunoblot for TrkB

binding [1] | binding [2] | Substance
no binding |  | SorLA (from UniProt O88307 82-2215) (receptor)
 | binds | TrkB (from UniProt P15209 32-821) (receptor)
no binding |  | TrkC (from UniProt Q6VNS1 32-825) (receptor)
binds |  | sortilin (SORT1) (from UniProt Q6PHU5 74-825) (receptor)
